# Out of some 400,000 compounds screened, about 13,000 (3.2%) were called active. The inconclusive results got no clear call from the source; some entries with a clear call stand among them for comparison. Calls come from the whole dose curve; as a rule, active = well fitted cell-killing curve with a large enough effect; inconclusive = small, poorly fitted or top-dose-only effect, or effect the other way; inactive = flat fitted curve, though single readings scatter. Potencies of inconclusive entries are doubtful fits and often do not repeat.
# Experiment: qHTS assay for MDR1-selective chemotherapeutics: Primary screen using the drug-selected MDR subline cells KB-V1; note: nearly all actives have a fitted effect of over 60% in size
# Conditions: KB-V1 MDR cells viability, CellTiter-Glo, 72 h; activity change, negative = cytotoxicity: at 46.1 µM (top of the series)
# In short: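 KB-V1 cells (P-gp-expressing MDR subline of KB-3-1) in phenol-red-free DMEM with 10% FBS were exposed to library compounds over a concentration series for 72 h at 37 degrees C. Viability read by CellTiter-Glo luminescence; concentration-effect curves fitted after normalization.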
# % is set by controls: 0 for no effect and ±100 for the full control effect; potency is the fitted concentration of half-maximal effect.
Structure (SMILES),Potency,"activity change, negative = cytotoxicity"
Cc1ccc(CCNC(=O)c2ccc(CS(=O)(=O)c3ccc(Cl)cc3)o2)cc1,"inconclusive: 0.58 µM [cytotoxic, full curve, poor fit]",–
C=CCNC(=O)CN1CCC(n2nnc3cc(C(F)(F)F)ccc32)CC1,"inconclusive: 18.4 µM [cytotoxic, single point]",–
COc1cc(Cl)ccc1OCc1cc(C(=O)N2CCCCCC2)no1,"inconclusive: 11.6 µM [cytotoxic, partial curve]",–
CN(C)CCNC(=O)c1cccc(-c2cnc3c(NC=O)cc(-c4cccc(C(F)(F)F)c4)cn23)c1,active: 14.6 µM,–
O=C(Nc1ccc2c(c1)OCCO2)N1CCN(Cc2ccccc2)CC1,"inconclusive: 29.1 µM [cytotoxic, single point]",–
CCOC(=O)C1=C(O)/C(=C/c2ccc(-c3ccccc3C(=O)O)o2)SC1=Nc1ccc(C)cc1,inactive,–
Cc1ccc(-n2c(C)nn(Cc3ccc([N+](=O)[O-])cc3)c2=O)cc1,"inconclusive: 16.4 µM [cytotoxic, partial curve, poor fit]",–
Cc1cc2ncn(CC3CC3(Cl)Cl)c2cc1C (stereo not given),"inconclusive: 0.0073 µM [cytotoxic, full curve, poor fit]",–
CCOC(=O)N1CCN(c2c(NCCc3ccccc3)c(=O)c2=O)CC1,"inconclusive: 18.4 µM [rising, single point]",–
CCC(C)(C)n1nnnc1C(c1cc2ccc(C)cc2[nH]c1=O)N(Cc1cccnc1)Cc1ccco1 (stereo not given),active: 20.6 µM,–
CC(C)Oc1ccc(C(=O)Nc2cccc(S(=O)(=O)N3CCCC3)c2)cc1,"inconclusive: 18.4 µM [cytotoxic, partial curve, poor fit]",–
COc1ccc(CCNS(=O)(=O)c2cccc([N+](=O)[O-])c2)cc1OC,inactive,–
CN(N=O)c1ccc(/C=C2\C=Cc3ccccc32)cc1,inactive,–
Cc1cc2ccccc2n1CCNC(=O)c1ccc(F)cc1,inactive,–
COc1ccc(NC(=O)N(C)C[C@@H]2Oc3c(NC(=O)Nc4c(C)noc4C)cccc3C(=O)N([C@@H](C)CO)C[C@@H]2C)cc1,"inconclusive: 29.1 µM [rising, single point]",–
C[C@]12c3[nH]c4cc(-c5ccco5)ccc4c3CCN1C(=O)[C@@H](CC(=O)NCc1cccc(C(F)(F)F)c1)C[C@@H]2C(=O)N1CCCCC1,"inconclusive: 18.4 µM [cytotoxic, single point]",–
c1ccc(-c2csc3ncnc(NCc4ccccn4)c23)cc1,"inconclusive: 29.1 µM [cytotoxic, single point]",–
COc1ccc(-c2csc(N3CCC(C(N)=O)(N4CCCCC4)CC3)n2)cc1,"inconclusive: 16.4 µM [cytotoxic, partial curve]",–
Cc1ccc(C(=O)OCC(=O)N2C(C)CCCC2C)cc1S(=O)(=O)N1CCOCC1 (stereo not given),inactive,–
Cc1cc(C)n2nc(SCC(=O)c3ccccc3)nc2n1,"inconclusive: 14.6 µM [cytotoxic, partial curve, poor fit]",–
Cc1nc2ccccc2cc1OCc1ccc(F)cc1,"inconclusive: 23.1 µM [cytotoxic, partial curve]",–
COc1ccc(NC(=O)Cn2c(=O)oc3cc(S(=O)(=O)N4CCCCC4C)ccc32)cc1 (stereo not given),inactive,–
COC(=O)c1ccccc1NC(=O)CCCN1C(=O)C(c2ccccc2)Oc2cccnc21 (stereo not given),"inconclusive: 13 µM [cytotoxic, partial curve, poor fit]",–
CCOC(=O)c1ccc(NC(=S)N2CCSC2c2ccc(Br)cc2)cc1 (stereo not given),"inconclusive: 20.6 µM [cytotoxic, single point]",–

# Entries of single compounds, looked up by structure:
# Cc1ccc(C(=O)OCC(=O)N2C(C)CCCC2C)cc1S(=O)(=O)N1CCOCC1 (stereo not given) reads Potency: inactive
# CN(N=O)c1ccc(/C=C2\C=Cc3ccccc32)cc1 reads Potency: inactive
# C=CCNC(=O)CN1CCC(n2nnc3cc(C(F)(F)F)ccc32)CC1 reads Potency: inconclusive: 18.4 µM [cytotoxic, single point]
# C[C@]12c3[nH]c4cc(-c5ccco5)ccc4c3CCN1C(=O)[C@@H](CC(=O)NCc1cccc(C(F)(F)F)c1)C[C@@H]2C(=O)N1CCCCC1 reads Potency: inconclusive: 18.4 µM [cytotoxic, single point]

# More compounds follow:

Structure (SMILES),Potency,"activity change, negative = cytotoxicity"
CCn1c(SCC(=O)N2CCCc3ccccc32)nc2cccnc21,inactive,–
Cc1noc(N)c1C(=O)Nc1ccccc1F,inactive,–
CN(C(=O)COC(=O)COc1ccc2ccccc2c1)c1c(N)n(Cc2ccccc2)c(=O)[nH]c1=O,"inconclusive: 11.6 µM [rising, partial curve, poor fit]",–
Cc1ccc(NC(=S)N(CCCN2CCC(C)CC2)Cc2ccco2)cc1,"inconclusive: 13 µM [cytotoxic, partial curve, poor fit]",–
COc1ccc2c(COC(=O)c3cccc(S(=O)(=O)NCC(C)C)c3)cc(=O)oc2c1,inactive,–
Cc1ccc(S(=O)(=O)c2cc3ccccc3oc2=Nc2ccc3c(c2)OCCO3)cc1,active: 10.3 µM,–
Cc1cc(Nc2cccc(Br)c2)c2ccccc2n1,"inconclusive: 29.1 µM [cytotoxic, single point]",–
COc1ccc(OCCSc2nc3ccccc3n2CCC(=O)O)cc1,–,inconclusive: -3.02%
CCCCCCn1c(=O)n2n(c1=O)C[C@]1(OC(=O)NCC3CCCCC3)CN(S(=O)(=O)c3ccc(C)cc3)C[C@]1(O)C2,inactive,–
COc1ccc(CCC(C)NC(=O)Cc2ccc(OC)c(OC)c2)c(OC)c1 (stereo not given),inactive,–
O=C(NCCN1CCC(n2c(=O)[nH]c3ccccc32)CC1)c1ccc(F)cc1F,"inconclusive: 16.4 µM [cytotoxic, partial curve]",–
CC(=O)N1c2ccc(S(=O)(=O)N3CCC(C(=O)NCCc4ccc(Cl)cc4)CC3)cc2CC1C (stereo not given),"inconclusive: 20.6 µM [cytotoxic, single point]",–
O=C(CSc1ccccc1C(=O)NCc1ccccc1)NC1CCCCCCC1,active: 3.26 µM,–
Cc1ccccc1NC(=O)CCCCC(=O)Nc1ccccc1C,inactive,–
COc1ccc(NC(=O)c2c(-c3ccccc3Cl)noc2C)c(OC)c1,inactive,–
Cc1[nH]c2ccc(F)cc2c1CCN(Cc1ccco1)C(=S)NC(C)(C)C,"inconclusive: 29.1 µM [cytotoxic, single point]",–
CCCCN(C(=O)COC(=O)CSc1cc(C)c2ccccc2n1)c1c(N)n(CCC)c(=O)[nH]c1=O,"inconclusive: 5.8 µM [rising, partial curve]",–
CC1CN(C(=O)c2ccccc2Nc2ccc(SC(F)F)cc2)CC(C)O1 (stereo not given),"inconclusive: 25.9 µM [cytotoxic, single point]",–
COc1cc(OC)c(OC)cc1CCC(C)NCCC(c1ccccc1)c1ccccc1 (stereo not given),inactive,–
CC(C)CCNC(=O)c1ccc(OC2CCN(S(=O)(=O)N(C)C)CC2)cc1,"inconclusive: 13 µM [cytotoxic, partial curve]",–
Cc1ccc(-c2[nH]ncc2C(=O)c2ccccc2C)c(O)c1,inactive,–
C=CCN1/C(=C(\C#N)C2=NS(=O)(=O)c3ccccc32)N(C)c2ccccc21,inactive,–
Cc1ccc(NC(=O)CN(C)C(=O)Cc2c[nH]c3ccccc23)cc1,active: 18.4 µM,–
O=C(c1ccco1)N1CCCN(Cc2cn[nH]c2-c2ccc(-c3ccccc3)cc2)CC1,"inconclusive: 23.1 µM [cytotoxic, single point]",–

Structure (SMILES),Potency,"activity change, negative = cytotoxicity"
O=C(Nc1ccc(Cl)cc1)c1cc(S(=O)(=O)N2CCOCC2)cs1,active: 9.2 µM,–
Cc1nc2nc(SCC(=O)NCCN3CCOCC3)nn2c(C)c1Cc1ccccc1,"inconclusive: 18.4 µM [cytotoxic, partial curve]",–
O=C1CCCN1CCCNc1ccc2nnc(CCC(=O)N3CCN(c4ccccc4)CC3)n2n1,"inconclusive: 8.2 µM [rising, partial curve, poor fit]",–
COc1ccc(C(=O)NCCCOC(C)C)cc1OC1CCN(C(C)=O)CC1,inactive,–
Nc1nonc1-c1nc2ccccc2n1Cc1c(Cl)cccc1Cl,"inconclusive: 16.4 µM [rising, single point]",–
COc1ccc(N(CC(=O)NCCc2ccccc2)S(=O)(=O)c2ccc(OC)c(OC)c2)cc1,inactive,–
CCOC(=O)C1(Cc2ccccc2C)CCCN(C(=O)CCc2cccnc2)C1 (stereo not given),"inconclusive: 2.31 µM [cytotoxic, full curve]",–
CC(=O)Nc1c(O)c2cccc3c2n(c1=O)CCC3,inactive,–
O=C1c2ccccc2S(=O)(=O)N1CC1CC(c2ccccc2Cl)=NO1 (stereo not given),"inconclusive: 16.4 µM [cytotoxic, partial curve, poor fit]",–
CCCCSc1cc(=O)[nH]c(N)n1,inactive,–
Cc1[nH]c2ccc(Cl)cc2c(=O)c1CN1CCCC1,"inconclusive: 10.3 µM [rising, partial curve, poor fit]",–
S=C(c1ccccc1)N1CCCc2ccccc21,"inconclusive: 16.4 µM [cytotoxic, partial curve]",–
Cn1ccc(NC(=O)c2ccc([N+](=O)[O-])cc2)n1,"inconclusive: 29.1 µM [rising, single point]",–
NC(=O)C12CCCC(Br)(CCC1)C2,inactive,–
Cc1ccc(S(=O)(=O)N2c3cc(C)ccc3OCC2C(C)(C)C)cc1 (stereo not given),"inconclusive: 16.4 µM [cytotoxic, single point]",–
CCn1c(CNc2ccc(F)cc2)nnc1SCC(=O)N1CCCc2ccccc21,"inconclusive: 10.3 µM [cytotoxic, partial curve]",–
O=S(=O)(NCCN1CCOCC1)c1cc(Cl)c(Cl)cc1Cl,"inconclusive: 29.1 µM [cytotoxic, single point]",–
O=c1nc(-c2ccccc2)n(-c2ccccc2)[nH]1,inactive,–
COc1ccc(CNC(=O)c2ccc(NC(=O)N3CCSc4ncccc43)cc2)cc1OC,"inconclusive: 0.184 µM [rising, full curve, poor fit]",–
N=c1n(CC(=O)c2cccs2)c2ccccc2n1Cc1ccccc1,inactive,–
C[C@@H]1CN([C@H](C)CO)S(=O)(=O)c2ccc(C#Cc3ccccc3F)cc2O[C@@H]1CN(C)C(=O)Cc1ccccc1,"inconclusive: 18.4 µM [cytotoxic, single point]",–
COc1ccc(CNC(=O)c2sc(=O)n(Cc3ccc(-c4ccccc4)cc3)c2C)cc1OC,active: 9.2 µM,–

# — PubChem BioAssay AID1347076 (National Center for Advancing Translational Sciences (NCATS), 2019)
